In the supplement of paper PMC8426693 one finds NMR binding call data, which are given here for 40 molecules.

Some of the results follow.

The subject of this assay is SARS-CoV-2 5_SL7 RNA. Put plainly: NMR binding call after quantification (hit when 2 of 3 NMR criteria are met) (binary (1 = binding, 0 = not binding)); higher = binding. The note with it: RNA concentration 10 µM; fragment concentration 200 µM; 293 K.
For the molecule `CCNC(=O)CN1CC(C)OCC1C` (stereo not given), the NMR binding call came out at 0. The same measure for `O=C(NCCN1CCCC1=O)Nc1ccccc1`: 0; for `NC(=O)c1cnn(CCO)c1`: 0; for `COc1ccc(CNC(=O)c2cnccn2)cc1`: 0. Take `COC(=O)c1sccc1NC(=O)C1CC1`: the NMR binding call amounted to 0.

In the case of `CCc1ncc(CNC)s1`, the NMR binding call was 0. The same measure for `CC(=O)Nc1ccccc1O`: 0. In turn, `CNC(=O)NCc1c(F)cccc1Cl` had an NMR binding call of 0. Take `CN1CCN(c2ccc(C#N)cc2)CC1`: the NMR binding call came to 1.

`CNc1ncccn1` registered an NMR binding call of 0. `Cn1cc(C(=O)O)c(-c2ccncc2)n1`: the NMR binding call worked out at 0. Regarding `CCN(CCO)c1ccc(N)cc1`, the NMR binding call amounted to 0. The same measure for `O=C(NCC1CCCO1)N1CCOCC1` (stereo not given): 0. Take `CN1CCN(C(=O)CO)CC1`: the NMR binding call was 0. Molecule `CNC1(C(N)=O)CCCC1` gave an NMR binding call of 0.

`CN1CCN(S(=O)(=O)N(C)C)CC1` showed an NMR binding call of 0. The same measure for `O=C(CN1CCCC1)Nc1ccc(F)cc1`: 0; for `Cn1cc(Oc2ncncc2Cl)cn1`: 0. For the molecule `CC1CCCCN1CCN` (stereo not given), the NMR binding call is 0. The same measure for `Oc1ccc(CN2CCCC2)c2cccnc12`: 0. Regarding `CC(CO)N(C)c1ncccc1F` (stereo not given), the NMR binding call came out at 0. With `CN(C)C(=O)c1ccc(F)cc1Br`, the NMR binding call amounted to 0.

As for `COC(=O)c1cccc(NS(C)(=O)=O)c1`, the NMR binding call was 0. The same measure for `CC(=O)NC(C)(C(=O)O)C1CC1` (stereo not given): 0. The same measure for `CC(C)c1ccc(C(=O)Nc2ccccn2)cc1`: 0. The same measure for `O=C(COC(F)F)N1CCCC2(CC2)C1`: 0.

`CC(=O)N1CCN(c2ccc(Cl)cc2)CC1` showed an NMR binding call of 0. The same measure for `Oc1ncc(NCCc2ccccc2)c(O)n1`: 0; for `CC(=O)Nc1ccc(F)c(C(=O)O)c1`: 0.

In the case of `CC(=O)N1CCCNCC1`, the NMR binding call stood at 0.

In turn, `CCc1noc(C)c1C(=O)Nc1cc(C)on1` registered an NMR binding call of 0. Consider `CN1CCN(c2ncccc2F)CC1=O`, for which the NMR binding call was 0.

Turning to `CCC(=O)Nc1cccc(N)c1C`, the NMR binding call is 0. Molecule `Cc1ccccc1CNc1nnnn1C` returned an NMR binding call of 0. The same measure for `CC(C)(C)NC(=O)N1CCC(C(N)=O)CC1`: 0; for `O=C(C1CC1)N1CCN(c2ccc(F)cc2)CC1`: 0. The molecule `COc1cccc(CN2CCC(C(N)=O)CC2)c1` came in with an NMR binding call of 0.

Molecule `COc1ccc(CN2CCOCC2)cc1OC` yielded an NMR binding call of 0. Molecule `CNC1(CO)CCOCC1` returned an NMR binding call of 0. `CNS(=O)(=O)CC1CCCCC1` yielded an NMR binding call of 0.
